Measured values: PubChem BioAssay (EPA / NIEHS)
This list holds what a sample rich in hits left over. Results filed as inconclusive are left out. More than one record can exist for a structure, and the calls need not agree. Calls of active or inactive are those of the source. The calls were made as follows: active = hit-call score of the fitted dose curve at least 0.9, where 1 is the maximum; inconclusive = response in the unintended direction; inactive = score below 0.9.

Test: ACEA_AR_agonist_AUC_viability: ACEA Biosciences xCELLigence Real-Time Cell Analysis on Androgen Receptor Agonism for Viability (AID 2283775);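 as to AC50: viability read 80 hours after compound addition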
Protocol: ACEA_AR_agonist is a cell-based, single-readout assay that uses 22Rv1, a human prostate cancer cell line, with measurements taken at 80 hours after chemical dosing in a 384-well plate, although TO5 and TO6 (mc0.srcf) used a 96-well plate. Differences in plate size can be ignored given data normalization.ACEA_AR_80hr is one of two assay component(s) measured or calculated from the ACEA_AR assay. It is designed to make measurements of real-time cell-growth kinetics, a form of growth reporter, as detected with electrical impedance signals by Real-Time Cell Electrode Sensor (RT-CES) technology.Data from the assay component ACEA_AR_AUC_viability was analyzed in the positive analysis fitting direction relative to DMSO as the negative control and baseline of activity. Using a type of growth reporter, loss-of-signal activity can be used to understand changes in the viability. Furthermore, this assay endpoint can be referred to as a secondary readout, because this assay has produced multiple assay endpoints where this one serves a viability function. To generalize the intended target to other relatable targets, this assay endpoint is annotated to the cell cycle intended target family, where the subfamily is cytotoxicity.
The xCELLigence system Multi-E-Plate stations were used to measure the time-dependent response to chemicals. Each compound was tested in an eight-point, 1:4 serial dilution series starting at a maximum final concentration of 100 uM. A maximum starting concentration of 0.5% DMSO was present in the 100 uM chemical samples and was diluted along with the test article dilution series. The screen was performed in biological duplicate using two separate, 96-well, E-Plates 96 for each dilution series (n = 2). Positive controls (MG132 and testosterone) and a negative control (assay media) were tested in quadruplicate on each testing plate. Then, 0.5% and 0.125% DMSO were tested in duplicates in each plate to serve as solvent controls for the 2 highest concentrations of testing compounds: 100 uM and 25 uM. Reference compounds were tested with 8 concentrations with 1:5 serial dilutions. All screening was carried out by ACEA Biosciences, Inc. (San Diego, CA). 22Rv1 cells purchased from ATCC were maintained in media supplemented with 10% fetal bovine serum (FBS). Before screening, 22Rv1 cells were preconditioned in assay medium. Cells were then detached and seeded in E-Plates 96 in assay medium. After overnight monitoring of growth once every hour, compounds were added to […] cells and remained in the medium until the end of the experiment. Cellular responses were then recorded once every 5 min for the first 5 h, and once every hour for an additional 100 h.

SMILES | outcome | AC50
ClC1C(Cl)C(Cl)C(Cl)C(Cl)C1Cl (stereo not given) | inactive | –
CCOC(=O)NC(=S)Nc1ccccc1NC(=S)NC(=O)OCC | inactive | –
Cc1cc(Cl)ccc1O | inactive | –
C1CCC(NC2CCCCC2)CC1 | inactive | –
O=C(NC(=O)c1c(F)cccc1F)Nc1ccc(Cl)cc1 | inactive | –
CC(C)(C)OOC(C)(C)CCC(C)(C)OOC(C)(C)C | inactive | –
COC(N)=O | inactive | –
O=S1(=O)OCC2C(CO1)C1(Cl)C(Cl)=C(Cl)C2(Cl)C1(Cl)Cl (stereo not given) | inactive | –
CNC(=O)O/N=C/C(C)(C)S(C)=O (stereo not given) | inactive | –
Oc1ccc(Cl)cc1 | inactive | –
CCC1CCC(=O)O1 (stereo not given) | inactive | –
CCC[CH2][Sn]([CH2]CCC)([CH2]CCC)[CH2]CCC | – | active: 28.3 µM
C=CC#N | inactive | –
O=C(CBr)c1ccc(O)cc1 | inactive | –
c1ccc2c(c1)sc1ccccc12 | inactive | –
CCOP(=O)(OCC)Oc1ccc([N+](=O)[O-])cc1 | inactive | –
CCCCC(CC)COC(=O)c1c(Br)c(Br)c(Br)c(Br)c1C(=O)OCC(CC)CCCC (stereo not given) | inactive | –
CN(C)[C@@H]1C(=O)C(C(N)=O)=C(O)[C@@]2(O)C(=O)C3=C(O)c4c(O)cccc4[C@@](C)(O)[C@H]3[C@H](O)[C@@H]12 | inactive | –
CC(C)(C)C(O)/C(=C\c1ccc(Cl)cc1Cl)n1cncn1 (stereo not given) | – | active: 25.6 µM
O=[N+]([O-])c1ccccc1O | inactive | –
O=C(O)C1C2CCC(O2)C1C(=O)O (stereo not given) | – | active: 47 µM
N#Cc1c(Cl)c(Cl)c(Cl)c(C#N)c1Cl | – | active: 5.12 µM
Cc1ccc(OP(=O)(Oc2ccc(C)cc2)Oc2ccc(C)cc2)cc1 (tested in a mixture with another compound) | inactive | –
COc1cc(OC)nc(Sc2cccc(Cl)c2C(=O)O)n1 | inactive | –
COC(=O)Nc1cccc(OC(=O)Nc2cccc(C)c2)c1 | inactive | –
O=c1nc(O)n(Cl)c(=O)n1Cl | inactive | –
CC1(C)[C@H](C(=O)O[C@H](C#N)c2cccc(Oc3ccccc3)c2)[C@@H]1/C=C(\Cl)C(F)(F)F | inactive | –
CNC(=O)Oc1ccccc1OC(C)C | inactive | –
C[C@]12CC[C@H](O)CC1=CC[C@@H]1[C@@H]2CC[C@]2(C)C(=O)CC[C@@H]12 | inactive | –
CCCCCCCCCCCCOS(=O)(=O)O | inactive | –
